PMC8397841
No constants are given. Whether binding was seen depends on the method and setting. In cells and extracts the contact can be indirect. Some entries that bind do so weakly or less than the wild type. For part of these data: Sequences can lack the tags named with a protein.

Protein sequences, listed by entry. Tags and fused reporters are not part of them. Residues count along the entry.
UniProt P29317, residues 24-976: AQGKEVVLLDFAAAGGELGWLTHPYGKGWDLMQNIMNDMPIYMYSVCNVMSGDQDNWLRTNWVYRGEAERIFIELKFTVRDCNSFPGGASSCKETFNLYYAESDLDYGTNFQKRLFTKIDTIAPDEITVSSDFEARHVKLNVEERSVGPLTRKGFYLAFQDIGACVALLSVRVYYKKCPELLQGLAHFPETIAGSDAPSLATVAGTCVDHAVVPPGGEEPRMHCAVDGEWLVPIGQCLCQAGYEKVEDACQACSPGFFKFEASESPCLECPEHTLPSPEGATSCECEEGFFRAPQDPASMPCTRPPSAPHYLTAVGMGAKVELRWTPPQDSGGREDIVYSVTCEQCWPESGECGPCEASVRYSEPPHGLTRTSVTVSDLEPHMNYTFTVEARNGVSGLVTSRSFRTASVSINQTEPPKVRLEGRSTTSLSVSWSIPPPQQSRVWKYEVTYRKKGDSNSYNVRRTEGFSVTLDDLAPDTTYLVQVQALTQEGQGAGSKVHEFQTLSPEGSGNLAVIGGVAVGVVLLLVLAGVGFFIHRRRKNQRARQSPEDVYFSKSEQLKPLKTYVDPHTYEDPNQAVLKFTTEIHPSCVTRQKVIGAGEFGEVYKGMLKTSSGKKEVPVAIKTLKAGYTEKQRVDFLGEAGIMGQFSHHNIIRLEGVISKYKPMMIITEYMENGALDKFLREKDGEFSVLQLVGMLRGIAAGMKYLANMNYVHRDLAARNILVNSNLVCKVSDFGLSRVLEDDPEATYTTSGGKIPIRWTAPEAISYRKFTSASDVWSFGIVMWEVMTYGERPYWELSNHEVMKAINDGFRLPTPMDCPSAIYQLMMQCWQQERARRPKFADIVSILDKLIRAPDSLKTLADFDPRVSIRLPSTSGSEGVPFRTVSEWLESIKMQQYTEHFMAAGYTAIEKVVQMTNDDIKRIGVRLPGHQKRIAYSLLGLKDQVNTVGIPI
UniProt O00459: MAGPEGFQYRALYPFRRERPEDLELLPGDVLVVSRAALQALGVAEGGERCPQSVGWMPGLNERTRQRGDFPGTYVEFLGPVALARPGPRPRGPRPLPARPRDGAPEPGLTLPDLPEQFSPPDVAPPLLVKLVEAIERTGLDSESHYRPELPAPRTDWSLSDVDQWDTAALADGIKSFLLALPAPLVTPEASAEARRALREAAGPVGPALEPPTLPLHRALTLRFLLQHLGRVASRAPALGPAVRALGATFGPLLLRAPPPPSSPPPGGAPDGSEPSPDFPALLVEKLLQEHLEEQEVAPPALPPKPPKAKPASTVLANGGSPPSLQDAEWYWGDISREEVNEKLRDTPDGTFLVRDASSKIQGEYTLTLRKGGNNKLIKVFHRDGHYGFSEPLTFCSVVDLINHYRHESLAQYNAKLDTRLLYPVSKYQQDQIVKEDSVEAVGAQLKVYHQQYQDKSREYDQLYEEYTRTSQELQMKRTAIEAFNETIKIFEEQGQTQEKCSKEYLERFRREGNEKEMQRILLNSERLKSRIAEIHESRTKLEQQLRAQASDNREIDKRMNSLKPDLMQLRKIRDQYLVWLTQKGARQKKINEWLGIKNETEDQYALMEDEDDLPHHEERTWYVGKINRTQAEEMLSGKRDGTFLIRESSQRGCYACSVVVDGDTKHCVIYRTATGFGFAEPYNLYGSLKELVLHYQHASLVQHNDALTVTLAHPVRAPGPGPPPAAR

Key:
[1] = biological target: T1, Ephrin A4 (EFNA4), FLAG-tagged (UniProt P52798); experiment: co-IP; Hep3B cell lysates (EFNA4 overexpressed); antibody against FLAG-EFNA4, EPHA2 or PIK3R2; Pierce Co-Immunoprecipitation Kit; immune complexes analysed by western blotting
T1 sequence: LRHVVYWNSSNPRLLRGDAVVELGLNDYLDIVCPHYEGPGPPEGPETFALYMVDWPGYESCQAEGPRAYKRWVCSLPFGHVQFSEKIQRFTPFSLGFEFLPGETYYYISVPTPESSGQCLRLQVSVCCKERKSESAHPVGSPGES

[2] = biological target: EPHA2 receptor (human (endogenous in Hep3B)) (UniProt P29317); experiment: as above

| Substance | binding [1] | binding [2] |
| --- | --- | --- |
| EPHA2 receptor (from UniProt P29317 24-976) | binds |  |
| phosphoinositide-3-kinase regulatory subunit 2 (PIK3R2) (from UniProt O00459 1-728) | binds | binds |
